Data as given in patent publication EP4725955A1 (Nanjing Anji Biotechnology Co., Ltd., priority 2023, dated 2025).

Assay: general procedure: Fmoc solid-phase peptide synthesis; Wang resin; DIC/HOBT/DMAP (first residue); HBTU/DIPEA (Cy5 coupling)
Conditions: whole synthesis, 1.1 mmol/g

Substance: Cy5-RSPYANS (Cy5 label)
- crude HPLC purity (scale 0.1 g Wang resin): 90%

Substance: PEPTIDE1{R.S.P.Y.A.N.S}$$$$V2.0
- crude HPLC purity (scale 1 g Wang resin): 90%

Substance: {FITC}-RSPYANS
- crude HPLC purity (scale 0.1 g Wang resin): 90%

The same purity stands for every peptide and may come from a single statement. HELM strings list residues between dots; [ac] is acetyl, [am] amide, other brackets name non-standard units. Where no end group is shown, it is not given here. The star is where a group is joined. FITC = O=C1OC2(c3ccc(O)cc3Oc3cc(O)ccc32)c2ccc(NC(=S)*)cc21
